Assay results reported in the supplement of paper PMC7661543.
Differences between knockout arms are mostly noise.

System: BT-20
Assay: relative cell number vs DMSO control (72 h) (% of DMSO); higher = less growth inhibition (more cells)
Experimental: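 QMAP-Seq: a pool of 5 breast cancer cell lines (ZR-75-1, SKBR3, HCC-38, MDA-MB-231, BT-20), each carrying 12 doxycycline-inducible Cas9 sgRNA perturbations (11 knockouts plus non-targeting sgNT), was treated with compounds for 72 h at four 10-fold doses (10 nM-10 uM or 1 nM-1 uM range). Barcodes were amplified and sequenced, and cell number was interpolated from 293T spike-in standard curves. The result is expressed as % of the median of DMSO wells. Two biological replicates.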

COc1ccc(-c2ccc3c(N4CCOCC4)nc(N4C[C@@H](C)O[C@@H](C)C4)nc3n2)cc1CO
Conditions | relative cell number
sgRNA knockout: sgATF3, 10 nM | 88.6
sgRNA knockout: sgATF3, 100 nM | 123
sgRNA knockout: sgATF3, 1000 nM | 98
sgRNA knockout: sgATF3, 10000 nM | 52.3
sgRNA knockout: sgATF4, 10 nM | 90.6
sgRNA knockout: sgATF4, 100 nM | 115
sgRNA knockout: sgATF4, 1000 nM | 89.3
sgRNA knockout: sgATF4, 10000 nM | 43
sgRNA knockout: sgATF6, 10 nM | 90.9
sgRNA knockout: sgATF6, 100 nM | 106
sgRNA knockout: sgATF6, 1000 nM | 81.6
sgRNA knockout: sgATF6, 10000 nM | 43.9
sgRNA knockout: sgATG7, 10 nM | 99.7
sgRNA knockout: sgATG7, 100 nM | 105
sgRNA knockout: sgATG7, 1000 nM | 94.6
sgRNA knockout: sgATG7, 10000 nM | 46.6
sgRNA knockout: sgERN1, 10 nM | 95.9
sgRNA knockout: sgERN1, 100 nM | 100
sgRNA knockout: sgERN1, 1000 nM | 84.2
sgRNA knockout: sgERN1, 10000 nM | 45.3
sgRNA knockout: sgHSF1, 10 nM | 97.5
sgRNA knockout: sgHSF1, 100 nM | 107
sgRNA knockout: sgHSF1, 1000 nM | 84.3
sgRNA knockout: sgHSF1, 10000 nM | 48.5
sgRNA knockout: sgHSF2, 10 nM | 102
sgRNA knockout: sgHSF2, 100 nM | 96.6
sgRNA knockout: sgHSF2, 1000 nM | 77.7
sgRNA knockout: sgHSF2, 10000 nM | 43.3
sgRNA knockout: sgKEAP1, 10 nM | 96
sgRNA knockout: sgKEAP1, 100 nM | 99.8
sgRNA knockout: sgKEAP1, 1000 nM | 82
sgRNA knockout: sgKEAP1, 10000 nM | 50.1
sgRNA knockout: sgNFE2L2, 10 nM | 89.7
sgRNA knockout: sgNFE2L2, 100 nM | 96.9
sgRNA knockout: sgNFE2L2, 1000 nM | 101
sgRNA knockout: sgNFE2L2, 10000 nM | 54.4
sgRNA knockout: sgSLC35F2, 10 nM | 94.9
sgRNA knockout: sgSLC35F2, 100 nM | 121.3
sgRNA knockout: sgSLC35F2, 1000 nM | 101
sgRNA knockout: sgSLC35F2, 10000 nM | 45.4
sgRNA knockout: sgXBP1, 10 nM | 92.9
sgRNA knockout: sgXBP1, 100 nM | 115
sgRNA knockout: sgXBP1, 1000 nM | 81.2
sgRNA knockout: sgXBP1, 10000 nM | 48.5

C[C@@H](Oc1cc(-n2cnc3ccc(CN4CCN(C)CC4)cc32)sc1C(N)=O)c1ccccc1C(F)(F)F
Conditions | relative cell number
sgRNA knockout: sgATF3, 10 nM | 59.2
sgRNA knockout: sgATF3, 100 nM | 28.1
sgRNA knockout: sgATF3, 1000 nM | 34.2
sgRNA knockout: sgATF3, 10000 nM | 37
sgRNA knockout: sgATF4, 10 nM | 62.5
sgRNA knockout: sgATF4, 100 nM | 31.5
sgRNA knockout: sgATF4, 1000 nM | 31
sgRNA knockout: sgATF4, 10000 nM | 27
sgRNA knockout: sgATF6, 10 nM | 65.4
sgRNA knockout: sgATF6, 100 nM | 21.9
sgRNA knockout: sgATF6, 1000 nM | 26.9
sgRNA knockout: sgATF6, 10000 nM | 27.6
sgRNA knockout: sgATG7, 10 nM | 62.6
sgRNA knockout: sgATG7, 100 nM | 22.8
sgRNA knockout: sgATG7, 1000 nM | 30.8
sgRNA knockout: sgATG7, 10000 nM | 35.8
sgRNA knockout: sgERN1, 10 nM | 52.9
sgRNA knockout: sgERN1, 100 nM | 22.1
sgRNA knockout: sgERN1, 1000 nM | 29.5
sgRNA knockout: sgERN1, 10000 nM | 31.5
sgRNA knockout: sgHSF1, 10 nM | 56.7
sgRNA knockout: sgHSF1, 100 nM | 24.1
sgRNA knockout: sgHSF1, 1000 nM | 31.4
sgRNA knockout: sgHSF1, 10000 nM | 34.8
sgRNA knockout: sgHSF2, 10 nM | 53.8
sgRNA knockout: sgHSF2, 100 nM | 25.7
sgRNA knockout: sgHSF2, 1000 nM | 34
sgRNA knockout: sgHSF2, 10000 nM | 34.8
sgRNA knockout: sgKEAP1, 10 nM | 55.6
sgRNA knockout: sgKEAP1, 100 nM | 21.9
sgRNA knockout: sgKEAP1, 1000 nM | 29
sgRNA knockout: sgKEAP1, 10000 nM | 34.6
sgRNA knockout: sgNFE2L2, 10 nM | 64.3
sgRNA knockout: sgNFE2L2, 100 nM | 35.7
sgRNA knockout: sgNFE2L2, 1000 nM | 32
sgRNA knockout: sgNFE2L2, 10000 nM | 36.4
sgRNA knockout: sgSLC35F2, 10 nM | 54.1
sgRNA knockout: sgSLC35F2, 100 nM | 28
sgRNA knockout: sgSLC35F2, 1000 nM | 31.6
sgRNA knockout: sgSLC35F2, 10000 nM | 36.8
sgRNA knockout: sgXBP1, 10 nM | 68.4
sgRNA knockout: sgXBP1, 100 nM | 28.5
sgRNA knockout: sgXBP1, 1000 nM | 31.1
sgRNA knockout: sgXBP1, 10000 nM | 27

C[C@@]1(C(=O)Nc2ccc(F)nc2)CCCN1c1nc(Nc2cc(C3CC3)n[nH]2)c2cccn2n1
Conditions | relative cell number
sgRNA knockout: sgATF3, 10 nM | 87.8
sgRNA knockout: sgATF3, 100 nM | 90.5
sgRNA knockout: sgATF3, 1000 nM | 75.6
sgRNA knockout: sgATF3, 10000 nM | 58.5
sgRNA knockout: sgATF4, 10 nM | 98.5
sgRNA knockout: sgATF4, 100 nM | 93.8
sgRNA knockout: sgATF4, 1000 nM | 89
sgRNA knockout: sgATF4, 10000 nM | 53.9
sgRNA knockout: sgATF6, 10 nM | 86.33
sgRNA knockout: sgATF6, 100 nM | 67.3
sgRNA knockout: sgATF6, 1000 nM | 76.3
sgRNA knockout: sgATF6, 10000 nM | 55.1
sgRNA knockout: sgATG7, 10 nM | 102
sgRNA knockout: sgATG7, 100 nM | 97
sgRNA knockout: sgATG7, 1000 nM | 85.7
sgRNA knockout: sgATG7, 10000 nM | 54.7
sgRNA knockout: sgERN1, 10 nM | 75.6
sgRNA knockout: sgERN1, 100 nM | 82.4
sgRNA knockout: sgERN1, 1000 nM | 87.1
sgRNA knockout: sgERN1, 10000 nM | 63.5
sgRNA knockout: sgHSF1, 10 nM | 95.8
sgRNA knockout: sgHSF1, 100 nM | 83.6
sgRNA knockout: sgHSF1, 1000 nM | 75.5
sgRNA knockout: sgHSF1, 10000 nM | 57.4
sgRNA knockout: sgHSF2, 10 nM | 79.2
sgRNA knockout: sgHSF2, 100 nM | 87.9
sgRNA knockout: sgHSF2, 1000 nM | 79.6
sgRNA knockout: sgHSF2, 10000 nM | 67.9
sgRNA knockout: sgKEAP1, 10 nM | 86.4
sgRNA knockout: sgKEAP1, 100 nM | 83.2
sgRNA knockout: sgKEAP1, 1000 nM | 68.1
sgRNA knockout: sgKEAP1, 10000 nM | 56.27
sgRNA knockout: sgNFE2L2, 10 nM | 91.2
sgRNA knockout: sgNFE2L2, 100 nM | 75.6
sgRNA knockout: sgNFE2L2, 1000 nM | 70.8
sgRNA knockout: sgNFE2L2, 10000 nM | 51.1
sgRNA knockout: sgSLC35F2, 10 nM | 103
sgRNA knockout: sgSLC35F2, 100 nM | 89.8
sgRNA knockout: sgSLC35F2, 1000 nM | 91.8
sgRNA knockout: sgSLC35F2, 10000 nM | 60.5
sgRNA knockout: sgXBP1, 10 nM | 87.6
sgRNA knockout: sgXBP1, 100 nM | 85.6
sgRNA knockout: sgXBP1, 1000 nM | 75.8
sgRNA knockout: sgXBP1, 10000 nM | 67.2
